The source of these data is publication PMC5327418.

The chains behind the UniProt entries cited, without tags or fusion partners.
UniProt P32569: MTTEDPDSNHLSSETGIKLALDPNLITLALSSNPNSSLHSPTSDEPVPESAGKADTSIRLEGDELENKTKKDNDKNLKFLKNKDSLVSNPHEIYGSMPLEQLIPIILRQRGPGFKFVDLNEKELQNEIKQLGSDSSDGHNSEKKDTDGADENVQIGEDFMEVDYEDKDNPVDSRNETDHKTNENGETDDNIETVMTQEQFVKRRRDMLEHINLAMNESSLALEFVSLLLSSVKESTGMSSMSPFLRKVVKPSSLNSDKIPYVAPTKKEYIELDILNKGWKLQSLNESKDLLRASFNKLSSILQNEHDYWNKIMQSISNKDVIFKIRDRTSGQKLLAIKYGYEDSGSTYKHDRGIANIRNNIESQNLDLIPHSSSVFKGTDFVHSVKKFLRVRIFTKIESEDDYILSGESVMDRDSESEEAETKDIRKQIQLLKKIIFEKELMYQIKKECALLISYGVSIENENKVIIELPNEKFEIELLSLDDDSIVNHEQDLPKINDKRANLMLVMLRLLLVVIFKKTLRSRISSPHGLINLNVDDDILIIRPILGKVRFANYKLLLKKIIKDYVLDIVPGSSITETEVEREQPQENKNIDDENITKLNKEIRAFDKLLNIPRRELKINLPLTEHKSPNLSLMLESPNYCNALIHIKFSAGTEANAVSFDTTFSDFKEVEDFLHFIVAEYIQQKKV

The test concerns the target Med17-HA (S. cerevisiae (endogenous in S288c)) (UniProt P32569). As to the kind of experiment: affinity purification with mass spectrometry; CoIP of Med17-HA on anti-HA magnetic beads from cryoground yeast lysate, 2 h at 4 °C; 20 mM HEPES pH 7.5, 300 mM KOAc, 10% glycerol, 0.01% NP-40, 6 mM MnSO4, 1 mM DTT, Cyanase nuclease; parallel control CoIP from 15N-labelled wild type cells, mixing after purification (MAP); GeLC-MS/MS, three biological replicates.

These are yes or no findings as the source states them, for the method shown. In cells and extracts the contact can be indirect. A yes stands for co-enrichment or nearness to the bait. Other partners may have been found.

B1: Met32 (protein, UniProt Q12041 1-191)
chain: MEDQDAAFIKQATEAIVDVSLNIDNIDPIIKELLERVRNRQNRLQNKKPALIPAENGVDINSQGGNIKVKKENALPKPPKSSKSKPQDRRNSTGEKRFKCAKCSLEFSRSSDLRRHEKTHFAILPNICPQCGKGFARKDALKRHYDTLTCRRNRTKLLTAGGEGINELLKKVKQSNIVHRQDNNHNGSSNG
As to B1, the binding result is listed as “binds”.

B2: Tel2 (protein, UniProt P53038 1-688)
chain: MVLETLKQGLDSSQIHEALIQLDSYPREPVDLDASMVLIKFVIPVYPSLPERSKVILRRLASKSFTFLCQIVTFSRTISGRDGLQEIRIYQEILEDIISFEPGCLTFYLKASTTSKADRDSIKALFFGSKLFNVLANRIDMAKYLGYLRLQWKFLLESNETDPPGFLGEWLVSSFLLNPVLAADMLLGELFLLKESYFFSFQKIISASSLIDQKRLIAKFLLPYIQVIVTLENLNDVRKILRRFDLDKIISLSVLFEIQSLPLKEVIVRLMSNHSSTKFVSALVSKFADFTDEEVDTKTCELLVLFAVHNLNHSQREEIAHDERFLNGVTKHLGSNEREARERAMFIAKLLSGGHLKYESDFKINIPNVKFESNSDDKIIDFQSLKNPSICNTQTDVGKDKITEVSGHVQSLTLDCSDSDDEDENDEREIVKRIVFLKDLMKEYEKTGESRKAPLIPLLKQTVKLIRQKADFQLEVGYYAQGILSSIVCLNNEFDEPLFEQWRINALTSILVVLPEKVNGAINILFNSELSLQQRMSLLSALGLSARELRGLDDPTIVKPKFDFPTNRLPWDDQSHHNSRLVEVQESTSMIKKTKTVWKSRKLGKDREKGTQNRFRKYAGLFFYPLAHGWLNGIDVGTYNQLFKSHYLTTLRIIYSCANPVHDFESMTELMNHIISSAIEEGISLNKG
As to B2, the binding entry is listed as “binds”.

B3: Gat1 (protein, UniProt P43574 1-510)
chain: MHVFFPLLFRPSPVLFIACAYIYIDIYIHCTRCTVVNITMSTNRVPNLDPDLNLNKEIWDLYSSAQKILPDSNRILNLSWRLHNRTSFHRINRIMQHSNSIMDFSASPFASGVNAAGPGNNDLDDTDTDNQQFFLSDMNLNGSSVFENVFDDDDDDDDVETHSIVHSDLLNDMDSASQRASHNASGFPNFLDTSCSSSFDDHFIFTNNLPFLNNNSINNNHSHNSSHNNNSPSIANNTNANTNTNTSASTNTNSPLLRRNPSPSIVKPGSRRNSSVRKKKPALKKIKSSTSVQSSATPPSNTSSNPDIKCSNCTTSTTPLWRKDPKGLPLCNACGLFLKLHGVTRPLSLKTDIIKKRQRSSTKINNNITPPPSSSLNPGAAGKKKNYTASVAASKRKNSLNIVAPLKSQDIPIPKIASPSIPQYLRSNTRHHLSSSVPIEAETFSSFRPDMNMTMNMNLHNASTSSFNNEAFWKPLDSAIDHHSGDTNPNSNMNTTPNGNLSLDWLNLNL
For the molecule B3, the binding entry is on record as “binds”.

B4: Fzf1 (protein, UniProt P32805 1-299)
chain: MTDIGRTKSRNYKCSFDGCEKVYNRPSLLQQHQNSHTNQKPYHCDEPGCGKKFIRPCHLRVHKWTHSQIKPKACTLCQKRFVTNQQLRRHLNSHERKSKLASRIDRKHEGVNANVKAELNGKEGGFDPKLPSGSPMCGEEFSQGHLPGYDDMQVLQCPYKSCQKVTSFNDDLINHMLQHHIASKLVVPSGDPSLKESLPTSEKSSSTDTTSIPQLSFSTTGTSSSESVDSTTAQTPTDPESYWSDNRCKHSDCQELSPFASVFDLIDHYDHTHAFIPETLVKYSYIHLYKPSVWDLFEY
Regarding B4, the binding entry is reported as “binds”.

B5: Met4 (protein, UniProt P32389 1-672)
chain: MKQEQSHEGDSYSTEFINLFGKDTATHPSSNNGANNNGMGSTNSLDQFVATASSSSSLVTSSENRRPLIGDVTNRGNTNLYDHAVTPEILLEQLAYVDNFIPSLDNEFSNVDWNVNTTHNNANNNGADTFSSINANPFDLDEQLAIELSAFADDSFIFPDEDKPSNNNNNSNNGNDDHSNHDVLHEDPSTNNRQRNPHFLTQRRNTFLTSQYDQSKSRFSSKNKRNGNNGETNNFGDNMQNNHPFEPNFMGSPSQFPADATNMTSIDHGGFTNVDITSTENNTTGDNGVDALSNLLHRTTHTPNRSSPLSNVTSAQNSSSQQRKHSESKVDSNSDNNSSNKAPNITVPDYSIIPTSVLVTLLPRVNVPNGAYNSLISAGFDNDQIDAIAAIMAYHHQKKIRENNSNNNKNINTNDSQEAPILKNINELLSVLIPPSPAETRGPTTLSTSPSFNEHGVVAEASFLSSILELGIKHPKSNNIHNQRQPSRNDHKISRESDGNNGNDNVHHNNAVIKSSTTRGDEIAKIRSEPTLNASSSDHKENSLKRSHSGDLKNKKVPVDRKYSDNEDDEYDDADLHGFEKKQLIKKELGDDDEDLLIQSKKSHQKKKLKEKELESSIHELTEIAASLQKRIHTLETENKLLKNLVLSSGETEGIKKAESLKKQIFEKVQKE
As for B5, the binding result is “binds”.

B6: Ksp1 (protein, UniProt P38691 1-1029)
chain: MTLDYEIYKEGGILNNRYQKIEDISEGSYGYVSLAKDVREKRLVAVKYIFKLEDDGQYDGPQDDENDCDSSDCDDDEDTKVDTDRHENENGNASSNNGSSREKKHNLYKHKKSLISSKVKSRLSNNICLEAMYEVDIQTKIGRHQNIAALLDFFDSYIIMEYCSGGDLYEAIKADAVPKKTKSITHIITQIMDAIEYVHNKGIYHRDIKPENILISGIDWTIKLTDWGLATTDKTSMDRNVGSERYMSPELFDSNLDIKERKEPYDCAKVDLWAMGIVFLNIVFHKNPFSIANQSDKSFCYFAANREALFDVFSTMAYDFFQVLRYSLTIDPANRDLKMMRTELQNLSEYTLDDEYYNNLDEGYEETMIDGLPPQPVPPSSAPVSLPTPISSSNKQHMPEFKKDFNFNNVNERKRSDVSQNQNVASGFFKKPSTQQQKFFNQGYNTTLSTHERAKSAPKFKFKKRNKYGRTDNQFSKPVNIEDRKKSKILKKSRKPLGIPTPNTHMNNFFHDYKARDEFNTRDFFTPPSVQHRYMEGFSNNNNKQYRQNRNYNNNNNNSNNNHGSNYNNFNNGNSYIKGWNKNFNKYRRPSSSSYTGKSPLSRYNMSYNHNNNSSINGYARRGSTTTVQHSPGAYIPPNARNHHVSPTNQFLRVPQSTAPDISTVLGGKPSYQEHYTQDSMDSEGDHDSDDVLFTLEEGDHDFVNGMDNLSINDHLPHTTVGSHNEVFVHASTNHNNNGNNNHIDTNSTTNQYHRQYIPPPLTTSLHINNNNNESNELPDLLKSPASSEAHLNLSSGPIDPILTGNIGNRYSHSSDSKELEQERRLSMEQKFKNGVYVPPHHRKSFNLGTQVPPMNMKTSNEATLSVSHNSVNFGGSYNSRRSSANESNPLHMNKALEKLSSSPGAKSSFVGFPKPLLPRNHSSTTIALQNEDVFADSNNDAIIFEDEEYEGESDKMAHGKMEGGDNESSSTSPDERQIFGPYEIYAQTFAGSTHDKKLGAGRKTSIQDEMVGSLEQYKNNWLILQQQD
Take B6: the binding entry is on record as “binds”.

B7: Asg1 (protein, UniProt P40467 1-964)
chain: MPEQAQQGEQSVKRRRVTRACDECRKKKVKCDGQQPCIHCTVYSYECTYKKPTKRTQNSGNSGVLTLGNVTTGPSSSTVVAAAASNPNKLLSNIKTERAILPGASTIPASNNPSKPRKYKTKSTRLQSKIDRYKQIFDEVFPQLPDIDNLDIPVFLQIFHNFKRDSQSFLDDTVKEYTLIVNDSSSPIQPVLSSNSKNSTPDEFLPNMKSDSNSASSNREQDSVDTYSNIPVGREIKIILPPKAIALQFVKSTWEHCCVLLRFYHRPSFIRQLDELYETDPNNYTSKQMQFLPLCYAAIAVGALFSKSIVSNDSSREKFLQDEGYKYFIAARKLIDITNARDLNSIQAILMLIIFLQCSARLSTCYTYIGVAMRSALRAGFHRKLSPNSGFSPIEIEMRKRLFYTIYKLDVYINAMLGLPRSISPDDFDQTLPLDLSDENITEVAYLPENQHSVLSSTGISNEHTKLFLILNEIISELYPIKKTSNIISHETVTSLELKLRNWLDSLPKELIPNAENIDPEYERANRLLHLSFLHVQIILYRPFIHYLSRNMNAENVDPLCYRRARNSIAVARTVIKLAKEMVSNNLLTGSYWYACYTIFYSVAGLLFYIHEAQLPDKDSAREYYDILKDAETGRSVLIQLKDSSMAASRTYNLLNQIFEKLNSKTIQLTALHSSPSNESAFLVTNNSSALKPHLGDSLQPPVFFSSQDTKNSFSLAKSEESTNDYAMANYLNNTPISENPLNEAQQQDQVSQGTTNMSNERDPNNFLSIDIRLDNNGQSNILDATDDVFIRNDGDIPTNSAFDFSSSKSNASNNSNPDTINNNYNNVSGKNNNNNNITNNSNNNHNNNNNDNNNNNNNNNNNNNNNNNSGNSSNNNNNNNNNKNNNDFGIKIDNNSPSYEGFPQLQIPLSQDNLNIEDKEEMSPNIEIKNEQNMTDSNDILGVFDQLDAQLFGKYLPLNYPSE
B7: the binding entry was “binds”.

B8: DNA topoisomerase 2 (protein, UniProt P06786 1-1428)
chain: MSTEPVSASDKYQKISQLEHILKRPDTYIGSVETQEQLQWIYDEETDCMIEKNVTIVPGLFKIFDEILVNAADNKVRDPSMKRIDVNIHAEEHTIEVKNDGKGIPIEIHNKENIYIPEMIFGHLLTSSNYDDDEKKVTGGRNGYGAKLCNIFSTEFILETADLNVGQKYVQKWENNMSICHPPKITSYKKGPSYTKVTFKPDLTRFGMKELDNDILGVMRRRVYDINGSVRDINVYLNGKSLKIRNFKNYVELYLKSLEKKRQLDNGEDGAAKSDIPTILYERINNRWEVAFAVSDISFQQISFVNSIATTMGGTHVNYITDQIVKKISEILKKKKKKSVKSFQIKNNMFIFINCLIENPAFTSQTKEQLTTRVKDFGSRCEIPLEYINKIMKTDLATRMFEIADANEENALKKSDGTRKSRITNYPKLEDANKAGTKEGYKCTLVLTEGDSALSLAVAGLAVVGRDYYGCYPLRGKMLNVREASADQILKNAEIQAIKKIMGLQHRKKYEDTKSLRYGHLMIMTDQDHDGSHIKGLIINFLESSFPGLLDIQGFLLEFITPIIKVSITKPTKNTIAFYNMPDYEKWREEESHKFTWKQKYYKGLGTSLAQEVREYFSNLDRHLKIFHSLQGNDKDYIDLAFSKKKADDRKEWLRQYEPGTVLDPTLKEIPISDFINKELILFSLADNIRSIPNVLDGFKPGQRKVLYGCFKKNLKSELKVAQLAPYVSECTAYHHGEQSLAQTIIGLAQNFVGSNNIYLLLPNGAFGTRATGGKDAAAARYIYTELNKLTRKIFHPADDPLYKYIQEDEKTVEPEWYLPILPMILVNGAEGIGTGWSTYIPPFNPLEIIKNIRHLMNDEELEQMHPWFRGWTGTIEEIEPLRYRMYGRIEQIGDNVLEITELPARTWTSTIKEYLLLGLSGNDKIKPWIKDMEEQHDDNIKFIITLSPEEMAKTRKIGFYERFKLISPISLMNMVAFDPHGKIKKYNSVNEILSEFYYVRLEYYQKRKDHMSERLQWEVEKYSFQVKFIKMIIEKELTVTNKPRNAIIQELENLGFPRFNKEGKPYYGSPNDEIAEQINDVKGATSDEEDEESSHEDTENVINGPEELYGTYEYLLGMRIWSLTKERYQKLLKQKQEKETELENLLKLSAKDIWNTDLKAFEVGYQEFLQRDAEARGGNVPNKGSKTKGKGKRKLVDDEDYDPSKKNKKSTARKGKKIKLEDKNFERILLEQKLVTKSKAPTKIKKEKTPSVSETKTEEEENAPSSTSSSSIFDIKKEDKDEGELSKISNKFKKISTIFDKMGSTSATSKENTPEQDDVATKKNQTTAKKTAVKPKLAKKPVRKQQKVVELSGESDLEILDSYTDREDSNKDEDDAIPQRSRRQRSSRAASVPKKSYVETLELSDDSFIEDDEEENQGSDVSFNEED
Consider B8, for which the binding entry is given as “binds”.
